Experimental data reported in patent US20020157126A1 (published 2002).
No constants are given. Whether binding was seen depends on the method and setting. Some binding calls cover weakened binding; strength is not graded here.

Protein sequences, listed by entry. Tags and fused reporters are not part of them. Residues count along the entry.
UniProt P27040, residues 19-536: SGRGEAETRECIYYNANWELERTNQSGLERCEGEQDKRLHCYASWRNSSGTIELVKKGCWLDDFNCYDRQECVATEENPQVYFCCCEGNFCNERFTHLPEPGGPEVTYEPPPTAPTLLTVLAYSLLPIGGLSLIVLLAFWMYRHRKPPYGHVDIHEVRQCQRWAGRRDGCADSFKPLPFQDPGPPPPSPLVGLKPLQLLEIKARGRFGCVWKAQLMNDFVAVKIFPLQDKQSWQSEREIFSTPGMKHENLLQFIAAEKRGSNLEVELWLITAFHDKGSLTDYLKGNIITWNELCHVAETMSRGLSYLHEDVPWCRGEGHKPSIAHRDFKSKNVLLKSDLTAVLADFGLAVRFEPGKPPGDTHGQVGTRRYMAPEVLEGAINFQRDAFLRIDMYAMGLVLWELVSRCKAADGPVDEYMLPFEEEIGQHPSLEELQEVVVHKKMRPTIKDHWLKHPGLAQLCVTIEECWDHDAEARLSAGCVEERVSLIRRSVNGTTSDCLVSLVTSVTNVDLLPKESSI
UniProt P27038, residues 20-513: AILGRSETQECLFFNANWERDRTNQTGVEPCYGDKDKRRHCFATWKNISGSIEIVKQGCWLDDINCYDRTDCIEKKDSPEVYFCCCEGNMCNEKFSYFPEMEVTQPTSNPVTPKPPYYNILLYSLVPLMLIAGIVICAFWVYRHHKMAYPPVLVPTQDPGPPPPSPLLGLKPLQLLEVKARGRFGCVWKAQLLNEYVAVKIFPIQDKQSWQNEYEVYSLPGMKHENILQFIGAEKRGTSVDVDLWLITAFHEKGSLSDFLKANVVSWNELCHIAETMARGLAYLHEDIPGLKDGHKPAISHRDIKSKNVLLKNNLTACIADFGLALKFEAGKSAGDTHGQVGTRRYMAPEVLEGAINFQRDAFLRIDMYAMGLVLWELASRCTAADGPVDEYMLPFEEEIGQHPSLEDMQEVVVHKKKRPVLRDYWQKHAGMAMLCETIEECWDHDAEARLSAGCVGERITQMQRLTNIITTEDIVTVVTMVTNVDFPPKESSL
UniProt O08689, residues 268-376: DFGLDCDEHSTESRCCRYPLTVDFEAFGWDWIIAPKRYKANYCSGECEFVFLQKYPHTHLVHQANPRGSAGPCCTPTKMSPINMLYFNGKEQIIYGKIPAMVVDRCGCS

Columns and labels:
[1] = molecular target: activin type IIB receptor (Act RIIB) expressed on transfected COS cells (UniProt P27040); assay: radio-iodinated myostatin on Act RIIB-transfected COS cells
[2] = molecular target: activin type IIA receptor (Act RIIA) expressed on transfected COS-7 cells (UniProt P27038); assay: cross-linking and standard receptor binding assays on transfected COS-7 cells
[3] = molecular target: activin type IIB receptor (Act RIIB) expressed on transfected COS cells (UniProt P27040); assay: as above

Measured: binding

myostatin mature C-terminal dimer (purified from conditioned medium of CHO cells) (from UniProt O08689 268-376) (ligand)
binds: all assays above
